Measurements reported in PubChem BioAssay AID504793 (Drosophila RNAi Screening Center, 2011)

Screen: 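Knock-downs allowing continued mitosis even though DNA is damaged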 (primary screen)
Cell system: Drosophila S2R+ cells
Reagent: long dsRNA against Drosophila genes, about 0.25 µg dsRNA per well
Time to read-out: 4 days of dsRNA, then 4 hours of drug before read-out
Treatment: doxorubicin 0.5 µM for 4 hours to cause double-strand breaks, in cells also given a low, harmless dose of dsRNA against nbs to sensitise the assay
Measured: 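Per-well count of mitotic cells stained for phospho-histone H3 after doxorubicin exposure, used as mitotic index; counts are raw and not normalised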
Scale: mitotic cells: higher = more cells in mitosis, weaker G2 arrest
Call rule: 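Genes are called active only when high mitotic counts were reproduced with independent dsRNAs and mitosis was checked for delay without damage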
Calls: active = confirmed in follow-up tests; inactive = not confirmed
The deposit covers about 23,000 reagents; shown is a random part of those that have a named target and a result. In the full data, 62 (0.27%) were called active. 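Calls come from follow-up tests whose scores are not deposited, so confirmed genes may have low counts here; counts are not normalised per plate.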 Raw values vary from plate to plate and are shown uncorrected. Entries without a mark were called inactive. Names joined by + are all predicted targets of the reagent. No sequences are given here.

Gene	DRSC id	mitotic cells, replicate 1
CG15097	DRSC06526	2
CG15097	DRSC27170	7
chb	DRSC11469	170
chb	DRSC39154	99
CG16965	DRSC02547	7
Scp2	DRSC13166	4
Scp2	DRSC16854	8
CG7542	DRSC10868	8
SNF4Agamma	DRSC13461	12
SNF4Agamma	DRSC13463	12
SNF4Agamma	DRSC15879	8
SNF4Agamma	DRSC16847	53
CG8664	DRSC20116	8
CG4282	DRSC06865	9
Hexim	DRSC15490	5
Efr	DRSC18322	5
Efr	DRSC26945	3
Taf2	DRSC11298	7
Taf2	DRSC26215	10
CG2767	DRSC15451	3
CG2767	DRSC26830	7
CG11147	DRSC02129	6
SMC1	DRSC16846	14
CG12402	DRSC14508	2
CG12402	DRSC26872	6
CG7766	DRSC18424	7
CG15107	DRSC23406	8
MSBP	DRSC20146	7
kri	DRSC10515	5
CG14273	DRSC02377	6
CG14273	DRSC27247	2
CG15023	DRSC08477	2
CG15023	DRSC25462	10

Laid out differently: 6 of the entries above
{"Gene": "SNF4Agamma", "DRSC id": "DRSC16847", "mitotic cells, replicate 1": 53}
{"Gene": "CG8664", "DRSC id": "DRSC20116", "mitotic cells, replicate 1": 8}
{"Gene": "CG4282", "DRSC id": "DRSC06865", "mitotic cells, replicate 1": 9}
{"Gene": "Hexim", "DRSC id": "DRSC15490", "mitotic cells, replicate 1": 5}
{"Gene": "Efr", "DRSC id": "DRSC18322", "mitotic cells, replicate 1": 5}
{"Gene": "Efr", "DRSC id": "DRSC26945", "mitotic cells, replicate 1": 3}

The listing continues:
Gene	DRSC id	mitotic cells, replicate 1
Alms1a	DRSC18558	7
retn	DRSC04679	5
retn	DRSC27544	12
Cisd2	DRSC14904	9
RpS28a	DRSC15064	10
crc	DRSC03513	8
fh	DRSC18430	10
grk	DRSC03540	4
qkr58E-2	DRSC04710	4
qkr58E-2	DRSC25296	6
shps	DRSC14614	11
CG13659	DRSC14660	5
CG13659	DRSC29383	3
CG32582 (retired record)	DRSC19114	6
wgn	DRSC19998	6
CG9240	DRSC20177	7
Ns4	DRSC03199	8
Ns4	DRSC27230	4
Nelf-A	DRSC15903	9
CG18536	DRSC06763	2
CG31106	DRSC14655	9
Tssk	DRSC14784	9
Tssk	DRSC26679	9
Nup98-96	DRSC14209	5
Nup98-96	DRSC14210	12
amx	DRSC23466	4
AdoR	DRSC16556	13
AdoR	DRSC28071	3
Ptp61F	DRSC08683	7
Ptp61F	DRSC28719	5
CG31910	DRSC28186	7
Pex1	DRSC11358	7
CG3368	DRSC15485	9
sad	DRSC16630	6
sad	DRSC28569	7
CG10973	DRSC09813	10
m-cup	DRSC14430	3
Spn77Bb + Spn77Bc	DRSC10689	4
Spn77Bb + Spn77Bc	DRSC11793	7
scpr-A + scpr-C + scpr-B	DRSC15715	7
CG12464	DRSC06156	4
CG15258	DRSC02478	6
